From US9487515B2, “Compounds modulating c-fms and/or c-kit activity and uses therefor” (Plexxikon Inc., priority 2006, dated 2016)
Some results were stated once for a whole list of compounds, not compound by compound.

These molecules were tested against Fms (UniProt P07333) (assay: Fms assays of Examples 40 or 41 (AlphaScreen kinase assays at 10 and 100 μM ATP, 33P-ATP filter assay, RAW264.7 pFMS and M-NFS-60 M-CSF-stimulated proliferation)). Conditions: in at least one of the Fms assays described in Examples 40 or 41.

IC50, < 1000 nM:
c1ccc(CNc2ccc(Cc3c[nH]c4ncccc34)cn2)cc1 [P-0001, benzyl-[5-(1H-pyrrolo[2,3-b]pyridin-3-ylmethyl)-pyridin-2-yl]-amine]
O=C(c1ccc(NCc2ccccc2)nc1)c1c[nH]c2ncccc12 [P-0002, (6-Benzylamino-pyridin-3-yl)-(1H-pyrrolo[2,3-b]pyridin-3-yl)-methanone]
COc1ccc(CNc2ccc(Cc3c[nH]c4ncccc34)cn2)cc1 [P-0004, (4-methoxy-benzyl)-[5-(1H-pyrrolo[2,3-b]pyridin-3-ylmethyl)-pyridin-2-yl]-amine]
Clc1ccc(CNc2ccc(Cc3c[nH]c4ncccc34)cn2)cc1 [P-0005, (4-chloro-benzyl)-[5-(1H-pyrrolo[2,3-b]pyridin-3-ylmethyl)-pyridin-2-yl]-amine]
Fc1ccc(CNc2ccc(Cc3c[nH]c4ncccc34)cn2)cc1 [P-0006, (4-fluoro-benzyl)-[5-(1H-pyrrolo[2,3-b]pyridin-3-ylmethyl)-pyridin-2-yl]-amine]
Cc1ccc(CNc2ccc(Cc3c[nH]c4ncccc34)cn2)cc1 [P-0007, (4-methyl-benzyl)-[5-(1H-pyrrolo[2,3-b]pyridin-3-ylmethyl)-pyridin-2-yl]-amine]
c1csc(CNc2ccc(Cc3c[nH]c4ncccc34)cn2)c1 [P-0008, [5-(1H-pyrrolo[2,3-b]pyridin-3-ylmethyl)-pyridin-2-yl]-thiophen-2-ylmethyl-amine]
Clc1ccc(CNc2ccc(Cc3c[nH]c4nccc(Cl)c34)cn2)cc1 [P-0009, [5-(4-chloro-1H-pyrrolo[2,3-b]pyridin-3-ylmethyl)-pyridin-2-yl]-(4-chloro-benzyl)-amine]
COc1ccnc2[nH]cc(Cc3ccc(NCc4ccc(Cl)cc4)nc3)c12 [P-0010, [5-(4-Methoxy-1H-pyrrolo[2,3-b]pyridin-3-ylmethyl)-pyridin-2-yl]-(4-chloro-benzyl)-amine]
COc1ccnc2[nH]cc(Cc3ccc(NCc4ccc(C(F)(F)F)cc4)nc3)c12 [P-0011, [5-(4-Methoxy-1H-pyrrolo[2,3-b]pyridin-3-ylmethyl)-pyridin-2-yl]-(4-trifluoromethyl-benzyl)-amine]
Cc1nc(NCc2ccc(C(F)(F)F)cc2)ccc1Cc1c[nH]c2ncccc12 [P-0013, [6-Methyl-5-(1H-pyrrolo[2,3-b]pyridin-3-ylmethyl)-pyridin-2-yl]-(4-trifluoromethyl-benzyl)-amine]
Cc1nc(NCc2ccc(Cl)cc2)ccc1Cc1c[nH]c2ncccc12 [P-0014, (4-Chloro-benzyl)-[6-methyl-5-(1H-pyrrolo[2,3-b]pyridin-3-ylmethyl)-pyridin-2-yl]-amine]
O=C(c1ccc(NCc2ccc(F)cc2)nc1)c1c[nH]c2ncccc12 [P-0015, [6-(4-Fluoro-benzylamino)-pyridin-3-yl]-(1H-pyrrolo[2,3-b]pyridin-3-yl)-methanone]
O=C(c1ccc(NCc2cccc(F)c2)nc1)c1c[nH]c2ncccc12 [P-0016, [6-(3-Fluoro-benzylamino)-pyridin-3-yl]-(1H-pyrrolo[2,3-b]pyridin-3-yl)-methanone]
CC(C)CNc1ccc(Cc2c[nH]c3ncccc23)cn1 [P-0028, Isobutyl-[5-(1H-pyrrolo[2,3-b]pyridin-3-ylmethyl)-pyridin-2-yl]-amine]
c1cnc2[nH]cc(Cc3ccc(NCC4CC4)nc3)c2c1 [P-0032, Cyclopropylmethyl-[5-(1H-pyrrolo[2,3-b]pyridin-3-ylmethyl)-pyridin-2-yl]-amine]
c1cnc2[nH]cc(Cc3ccc(NCC4CCCCC4)nc3)c2c1 [P-0033, Cyclohexylmethyl-[5-(1H-pyrrolo[2,3-b]pyridin-3-ylmethyl)-pyridin-2-yl]-amine]
Clc1ccc(CNc2ccc(Cc3c[nH]c4ncc(Br)cc34)cn2)cc1 [P-0038, [5-(5-Bromo-1H-pyrrolo[2,3-b]pyridin-3-ylmethyl)-pyridin-2-yl]-(4-chloro-benzyl)-amine]
